The values that follow come from PMC11020453.

The chains behind the UniProt entries cited, without tags or fusion partners. Where a name states a change or a piece, a line headed by the entry shows the natural chain unless it says otherwise. Residues count along the entry.
UniProt P01106: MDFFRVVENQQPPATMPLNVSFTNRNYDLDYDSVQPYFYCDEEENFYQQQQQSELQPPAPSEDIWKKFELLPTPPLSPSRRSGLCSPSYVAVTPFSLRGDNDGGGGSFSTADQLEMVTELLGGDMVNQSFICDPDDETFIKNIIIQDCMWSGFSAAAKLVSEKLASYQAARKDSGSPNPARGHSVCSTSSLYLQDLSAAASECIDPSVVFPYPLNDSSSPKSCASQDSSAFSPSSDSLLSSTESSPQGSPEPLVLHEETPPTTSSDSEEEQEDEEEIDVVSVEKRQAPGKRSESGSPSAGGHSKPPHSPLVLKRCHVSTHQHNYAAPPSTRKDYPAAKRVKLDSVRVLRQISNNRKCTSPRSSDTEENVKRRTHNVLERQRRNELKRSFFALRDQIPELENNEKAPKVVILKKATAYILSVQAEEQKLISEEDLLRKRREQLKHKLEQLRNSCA
c-MYC deletion mutant lacking amino acids 422–454: residues 1-421 of P01106
UniProt O75716: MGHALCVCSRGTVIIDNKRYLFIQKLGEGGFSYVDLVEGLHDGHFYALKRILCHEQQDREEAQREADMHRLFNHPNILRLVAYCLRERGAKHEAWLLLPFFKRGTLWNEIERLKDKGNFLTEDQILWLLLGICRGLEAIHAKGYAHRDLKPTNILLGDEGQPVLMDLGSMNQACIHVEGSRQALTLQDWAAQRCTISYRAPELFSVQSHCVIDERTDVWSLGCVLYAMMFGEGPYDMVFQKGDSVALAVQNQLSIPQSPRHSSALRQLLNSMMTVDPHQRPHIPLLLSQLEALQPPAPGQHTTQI

Results are given in words; binding and its absence hold for the method and conditions named. In cells and extracts the contact can be indirect. Some entries that bind do so weakly or less than the wild type.

Experiment [1] has as its target c-MYC deletion mutant lacking amino acids 422–454 (UniProt P01106). Description: co-IP; co-immunoprecipitation with c-MYC deletion mutants (Fig. 5D, E); cells and tags not told; primary antibody on Protein L magnetic beads, lysate overnight at 4 °C, three washes with PBS, western blot. On the technique in general: Immunoblotting shows a protein as a band on a membrane.

Experiment [2] addresses c-MYC (MYC proto-oncogene) (human (endogenous in RKO and Lovo)) (UniProt P01106). As to the kind of experiment: co-IP; lysates of RKO and Lovo cells; primary antibody pre-bound to Protein L magnetic beads (2 h, room temperature), lysate with beads overnight at 4 °C, three washes with PBS, western blot.

“STK16 (in the co-immunoprecipitations with c-MYC deletion mutants) (from UniProt O75716 1-305) (enzyme)”: the binding entry in experiment [1] was “no binding”.
As to “STK16 (Serine/threonine kinase 16) (from UniProt O75716 1-305) (enzyme)”, in experiment [2], the binding result is reported as “binds”.
